Data: the supplement of paper PMC12024529
Counter-ions that a name gives are not always drawn. The list shows a part of the results. Plates or batches differ in their baseline, so values are only roughly comparable.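 HEK293 lines stably express B-domain-deleted factor VIII fused to Gaussia luciferase, wild type or a misfolding-prone missense mutant. Scores equal triplicate-well mean luminescence minus DMSO mean, divided by DMSO standard deviation; scores of 2 or higher are hits. Low scores may indicate reduced secretion or worse cell viability.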

Tested on: HEK293 p.N1941S BDD-FVIII-Gluc
Assay: secreted FVIII-Gluc luciferase Z-score vs DMSO control; higher = more FVIII-Gluc secretion
Details: 5 µM; 24 h

Structure (SMILES)	secreted FVIII-Gluc luciferase Z-score
CC(=O)OC1CN2CCC1CC2 (configuration not stated) [Aceclidine HCl]	inactive: 1.21
CC(=O)O[C@H]1C[C@@H]2CC[C@@H]3[C@H](CC[C@@]4(C)[C@H]3C[C@H]([N+]3(C)CCCCC3)[C@@H]4OC(C)=O)[C@@]2(C)C[C@@H]1[N+]1(C)CCCCC1 [Pancuronium (Pavulon)]	inactive: -1.43
NCC(O)c1ccc(O)cc1 (racemic) [(+,-)-Octopamine HCl]	inactive: 0.563
CN1C2CC(O)CC1C1OC12 (configuration not stated) [Scopine]	inactive: -0.319
CCC1(c2cccc(O)c2)CCCCN(C)C1 (configuration not stated) [Meptazinol HCl]	inactive: -0.427
CC[C@@]1(O)C(=O)OCc2c1cc1n(c2=O)Cc2cc3ccccc3nc2-1 [Camptothecin]	inactive: -5.81
CN(C)[C@@H]1C(=O)C(C(N)=O)=C(O)[C@@]2(O)C(=O)C3=C(O)c4c(O)cccc4[C@@](C)(O)[C@H]3C[C@@H]12 [Tetracycline HCl]	inactive: -1.14
CN(C)[C@@H]1C(=O)C(C(N)=O)=C(O)[C@@]2(O)C(=O)C3=C(O)c4c(O)cccc4[C@@](C)(O)[C@H]3[C@H](O)[C@@H]12 [Oxytetracycline (Terramycin)]	inactive: -3.1
O=c1[nH]c2ccccc2n1C1CCN(CCCC(c2ccc(F)cc2)c2ccc(F)cc2)CC1 [Pimozide]	inactive: -0.213
Cc1cc(O)ccc1Cl [Chlorocresol]	inactive: 0.132
CCCN1C[C@H](CSC)C[C@@H]2c3cccc4[nH]cc(c34)C[C@H]21 [Pergolide mesylate]	inactive: -1.19
CC(C)N(CCNC(=O)CN1CCCC1=O)C(C)C [Pramiracetam]	inactive: -1.02
CN(C)C(=O)Oc1ccc[n+](C)c1 [Pyridostigmine Bromide (Mestinon)]	inactive: 0.709
C=C1C[C@@H]2[C@H](CC[C@]3(C)C(=O)CC[C@@H]23)[C@@]2(C)C=CC(=O)C=C12 [Exemestane]	inactive: 0.824
CCC(COC(=O)c1cc(OC)c(OC)c(OC)c1)(c1ccccc1)N(C)C (configuration not stated) [Trimebutine]	inactive: -0.591
Cc1c(N)nc(C(CC(N)=O)NCC(N)C(N)=O)nc1C(=O)NC(C(=O)NC(C)C(O)C(C)C(=O)NC(C(=O)NCCc1nc(-c2nc(C(=O)NCCC[S+](C)C)cs2)cs1)C(C)O)C(O[C@@H]1O[C@@H](CO)[C@@H](O)[C@H](O)[C@@H]1O[C@H]1O[C@H](CO)[C@@H](O)[C@H](OC(N)=O)[C@@H]1O)c1cnc[nH]1 (some centres not stated) [Bleomycin sulfate]	inactive: -11.1
CN1C(=O)CCS(=O)(=O)C1c1ccc(Cl)cc1 (configuration not stated) [Chlormezanone (Trancopal)]	inactive: 0.116
O=S(=O)(F)Cc1ccccc1 [PMSF (Phenylmethylsulfonyl Fluoride)]	inactive: -0.227
O=C(O)c1nn(Cc2ccc(Cl)cc2Cl)c2ccccc12 [Lonidamine]	inactive: -0.598

Structure (SMILES)	secreted FVIII-Gluc luciferase Z-score
COc1ccc(C(CN(C)C)C2(O)CCCCC2)cc1 (configuration not stated) [Venlafaxine]	inactive: -0.093
C#C[C@]1(O)C=C[C@H]2[C@@H]3CCC4=CC(=O)CC[C@@H]4[C@H]3CC[C@@]21CC [Gestodene]	inactive: -1.85
O=C(O[C@H]1C[N+]2(CCCOc3ccccc3)CCC1CC2)C(O)(c1cccs1)c1cccs1 [Aclidinium Bromide]	inactive: 0.29
O=P1(NCCCl)OCCCN1CCCl (configuration not stated) [Ifosfamide]	inactive: -0.314
CC(C)NCC(O)c1ccccc1Cl (configuration not stated) [Clorprenaline HCL]	inactive: 0.0542
CC(C)c1c(CN(C)C(C)Cc2ccccc2)n(C)n(-c2ccccc2)c1=O (configuration not stated) [Famprofazone]	inactive: 0.109
COc1cc2c(cc1OC)[C@@]13CCN4CC5=CCO[C@H]6CC(=O)N2[C@H]1[C@H]6[C@H]5C[C@H]43 [Brucine]	inactive: 0.761
Cc1cccc(Cc2c[nH]cn2)c1C [Detomidine HCl]	inactive: -0.377
COC(=O)C1=CCCN(C)C1 [Arecoline]	inactive: -0.395
CN(C)[C@@H]1C(=O)C(C(N)=O)=C(O)[C@@]2(O)C(=O)C3=C(O)c4c(O)cccc4[C@@](C)(O)[C@H]3[C@H](O)[C@@H]12 [Oxytetracycline dihydrate]	inactive: -0.369
CC[C@@H](C(N)=O)N1CCCC1=O [Levetiracetam]	inactive: -0.505
O=C(O[C@H]1C[C@H]2CC[C@@H](C1)[N+]21CCCC1)C(O)(c1ccccc1)c1ccccc1 [Trospium chloride (Sanctura)]	inactive: 0.563
CN1c2ccccc2C(NCCCCCCC(=O)O)c2ccc(Cl)cc2S1(=O)=O (configuration not stated) [Tianeptine sodium]	inactive: -0.0658
CCCCCCCCCCCCCCCC[n+]1ccccc1 [Cetylpyridinium Chloride]	inactive: -3.04
NCCc1c[nH]c2ccc(O)cc12 [Serotonin HCl]	inactive: 0.404
N.N.[Cl][Pt][Cl] [Cisplatin]	active: 3.45
C[N+](C)(C)CCCCCCCCCC[N+](C)(C)C [Decamethonium bromide]	inactive: -0.0544
CCC1(c2ccc(N)cc2)CCC(=O)NC1=O (configuration not stated) [Aminoglutethimide (Cytadren)]	inactive: -1.51

Rewritten comma-delimited: part of the list above.
Structure (SMILES),secreted FVIII-Gluc luciferase Z-score
COc1ccc(C(CN(C)C)C2(O)CCCCC2)cc1 (configuration not stated) [Venlafaxine],inactive: -0.093
C#C[C@]1(O)C=C[C@H]2[C@@H]3CCC4=CC(=O)CC[C@@H]4[C@H]3CC[C@@]21CC [Gestodene],inactive: -1.85
O=C(O[C@H]1C[N+]2(CCCOc3ccccc3)CCC1CC2)C(O)(c1cccs1)c1cccs1 [Aclidinium Bromide],inactive: 0.29
O=P1(NCCCl)OCCCN1CCCl (configuration not stated) [Ifosfamide],inactive: -0.314
CC(C)c1c(CN(C)C(C)Cc2ccccc2)n(C)n(-c2ccccc2)c1=O (configuration not stated) [Famprofazone],inactive: 0.109
Cc1cccc(Cc2c[nH]cn2)c1C [Detomidine HCl],inactive: -0.377
COC(=O)C1=CCCN(C)C1 [Arecoline],inactive: -0.395
NCCc1c[nH]c2ccc(O)cc12 [Serotonin HCl],inactive: 0.404
N.N.[Cl][Pt][Cl] [Cisplatin],active: 3.45
C[N+](C)(C)CCCCCCCCCC[N+](C)(C)C [Decamethonium bromide],inactive: -0.0544
CCC1(c2ccc(N)cc2)CCC(=O)NC1=O (configuration not stated) [Aminoglutethimide (Cytadren)],inactive: -1.51
